Four molecules from paper PMC10781510 can be followed below.

By UniProt entry, the sequences of proteins in these tests, tags left out.
UniProt Q9JLV5: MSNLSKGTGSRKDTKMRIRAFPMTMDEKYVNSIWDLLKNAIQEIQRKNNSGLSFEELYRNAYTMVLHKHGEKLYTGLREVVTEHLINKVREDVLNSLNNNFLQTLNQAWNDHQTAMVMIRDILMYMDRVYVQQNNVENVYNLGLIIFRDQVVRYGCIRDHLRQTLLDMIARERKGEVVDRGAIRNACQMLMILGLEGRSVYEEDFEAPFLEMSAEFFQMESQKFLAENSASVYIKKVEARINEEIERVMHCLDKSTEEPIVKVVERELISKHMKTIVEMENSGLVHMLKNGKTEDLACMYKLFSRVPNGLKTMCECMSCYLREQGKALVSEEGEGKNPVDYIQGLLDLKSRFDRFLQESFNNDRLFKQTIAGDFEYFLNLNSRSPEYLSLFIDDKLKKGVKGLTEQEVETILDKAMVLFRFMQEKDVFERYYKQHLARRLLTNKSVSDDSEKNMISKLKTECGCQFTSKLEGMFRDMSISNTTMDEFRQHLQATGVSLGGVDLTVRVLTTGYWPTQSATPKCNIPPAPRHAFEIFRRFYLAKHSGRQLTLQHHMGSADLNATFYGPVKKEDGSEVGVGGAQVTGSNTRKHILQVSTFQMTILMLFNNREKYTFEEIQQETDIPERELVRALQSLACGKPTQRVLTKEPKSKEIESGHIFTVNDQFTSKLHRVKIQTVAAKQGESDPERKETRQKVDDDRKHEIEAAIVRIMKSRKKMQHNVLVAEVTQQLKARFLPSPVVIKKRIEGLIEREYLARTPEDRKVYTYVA
UniProt Q7TPH6: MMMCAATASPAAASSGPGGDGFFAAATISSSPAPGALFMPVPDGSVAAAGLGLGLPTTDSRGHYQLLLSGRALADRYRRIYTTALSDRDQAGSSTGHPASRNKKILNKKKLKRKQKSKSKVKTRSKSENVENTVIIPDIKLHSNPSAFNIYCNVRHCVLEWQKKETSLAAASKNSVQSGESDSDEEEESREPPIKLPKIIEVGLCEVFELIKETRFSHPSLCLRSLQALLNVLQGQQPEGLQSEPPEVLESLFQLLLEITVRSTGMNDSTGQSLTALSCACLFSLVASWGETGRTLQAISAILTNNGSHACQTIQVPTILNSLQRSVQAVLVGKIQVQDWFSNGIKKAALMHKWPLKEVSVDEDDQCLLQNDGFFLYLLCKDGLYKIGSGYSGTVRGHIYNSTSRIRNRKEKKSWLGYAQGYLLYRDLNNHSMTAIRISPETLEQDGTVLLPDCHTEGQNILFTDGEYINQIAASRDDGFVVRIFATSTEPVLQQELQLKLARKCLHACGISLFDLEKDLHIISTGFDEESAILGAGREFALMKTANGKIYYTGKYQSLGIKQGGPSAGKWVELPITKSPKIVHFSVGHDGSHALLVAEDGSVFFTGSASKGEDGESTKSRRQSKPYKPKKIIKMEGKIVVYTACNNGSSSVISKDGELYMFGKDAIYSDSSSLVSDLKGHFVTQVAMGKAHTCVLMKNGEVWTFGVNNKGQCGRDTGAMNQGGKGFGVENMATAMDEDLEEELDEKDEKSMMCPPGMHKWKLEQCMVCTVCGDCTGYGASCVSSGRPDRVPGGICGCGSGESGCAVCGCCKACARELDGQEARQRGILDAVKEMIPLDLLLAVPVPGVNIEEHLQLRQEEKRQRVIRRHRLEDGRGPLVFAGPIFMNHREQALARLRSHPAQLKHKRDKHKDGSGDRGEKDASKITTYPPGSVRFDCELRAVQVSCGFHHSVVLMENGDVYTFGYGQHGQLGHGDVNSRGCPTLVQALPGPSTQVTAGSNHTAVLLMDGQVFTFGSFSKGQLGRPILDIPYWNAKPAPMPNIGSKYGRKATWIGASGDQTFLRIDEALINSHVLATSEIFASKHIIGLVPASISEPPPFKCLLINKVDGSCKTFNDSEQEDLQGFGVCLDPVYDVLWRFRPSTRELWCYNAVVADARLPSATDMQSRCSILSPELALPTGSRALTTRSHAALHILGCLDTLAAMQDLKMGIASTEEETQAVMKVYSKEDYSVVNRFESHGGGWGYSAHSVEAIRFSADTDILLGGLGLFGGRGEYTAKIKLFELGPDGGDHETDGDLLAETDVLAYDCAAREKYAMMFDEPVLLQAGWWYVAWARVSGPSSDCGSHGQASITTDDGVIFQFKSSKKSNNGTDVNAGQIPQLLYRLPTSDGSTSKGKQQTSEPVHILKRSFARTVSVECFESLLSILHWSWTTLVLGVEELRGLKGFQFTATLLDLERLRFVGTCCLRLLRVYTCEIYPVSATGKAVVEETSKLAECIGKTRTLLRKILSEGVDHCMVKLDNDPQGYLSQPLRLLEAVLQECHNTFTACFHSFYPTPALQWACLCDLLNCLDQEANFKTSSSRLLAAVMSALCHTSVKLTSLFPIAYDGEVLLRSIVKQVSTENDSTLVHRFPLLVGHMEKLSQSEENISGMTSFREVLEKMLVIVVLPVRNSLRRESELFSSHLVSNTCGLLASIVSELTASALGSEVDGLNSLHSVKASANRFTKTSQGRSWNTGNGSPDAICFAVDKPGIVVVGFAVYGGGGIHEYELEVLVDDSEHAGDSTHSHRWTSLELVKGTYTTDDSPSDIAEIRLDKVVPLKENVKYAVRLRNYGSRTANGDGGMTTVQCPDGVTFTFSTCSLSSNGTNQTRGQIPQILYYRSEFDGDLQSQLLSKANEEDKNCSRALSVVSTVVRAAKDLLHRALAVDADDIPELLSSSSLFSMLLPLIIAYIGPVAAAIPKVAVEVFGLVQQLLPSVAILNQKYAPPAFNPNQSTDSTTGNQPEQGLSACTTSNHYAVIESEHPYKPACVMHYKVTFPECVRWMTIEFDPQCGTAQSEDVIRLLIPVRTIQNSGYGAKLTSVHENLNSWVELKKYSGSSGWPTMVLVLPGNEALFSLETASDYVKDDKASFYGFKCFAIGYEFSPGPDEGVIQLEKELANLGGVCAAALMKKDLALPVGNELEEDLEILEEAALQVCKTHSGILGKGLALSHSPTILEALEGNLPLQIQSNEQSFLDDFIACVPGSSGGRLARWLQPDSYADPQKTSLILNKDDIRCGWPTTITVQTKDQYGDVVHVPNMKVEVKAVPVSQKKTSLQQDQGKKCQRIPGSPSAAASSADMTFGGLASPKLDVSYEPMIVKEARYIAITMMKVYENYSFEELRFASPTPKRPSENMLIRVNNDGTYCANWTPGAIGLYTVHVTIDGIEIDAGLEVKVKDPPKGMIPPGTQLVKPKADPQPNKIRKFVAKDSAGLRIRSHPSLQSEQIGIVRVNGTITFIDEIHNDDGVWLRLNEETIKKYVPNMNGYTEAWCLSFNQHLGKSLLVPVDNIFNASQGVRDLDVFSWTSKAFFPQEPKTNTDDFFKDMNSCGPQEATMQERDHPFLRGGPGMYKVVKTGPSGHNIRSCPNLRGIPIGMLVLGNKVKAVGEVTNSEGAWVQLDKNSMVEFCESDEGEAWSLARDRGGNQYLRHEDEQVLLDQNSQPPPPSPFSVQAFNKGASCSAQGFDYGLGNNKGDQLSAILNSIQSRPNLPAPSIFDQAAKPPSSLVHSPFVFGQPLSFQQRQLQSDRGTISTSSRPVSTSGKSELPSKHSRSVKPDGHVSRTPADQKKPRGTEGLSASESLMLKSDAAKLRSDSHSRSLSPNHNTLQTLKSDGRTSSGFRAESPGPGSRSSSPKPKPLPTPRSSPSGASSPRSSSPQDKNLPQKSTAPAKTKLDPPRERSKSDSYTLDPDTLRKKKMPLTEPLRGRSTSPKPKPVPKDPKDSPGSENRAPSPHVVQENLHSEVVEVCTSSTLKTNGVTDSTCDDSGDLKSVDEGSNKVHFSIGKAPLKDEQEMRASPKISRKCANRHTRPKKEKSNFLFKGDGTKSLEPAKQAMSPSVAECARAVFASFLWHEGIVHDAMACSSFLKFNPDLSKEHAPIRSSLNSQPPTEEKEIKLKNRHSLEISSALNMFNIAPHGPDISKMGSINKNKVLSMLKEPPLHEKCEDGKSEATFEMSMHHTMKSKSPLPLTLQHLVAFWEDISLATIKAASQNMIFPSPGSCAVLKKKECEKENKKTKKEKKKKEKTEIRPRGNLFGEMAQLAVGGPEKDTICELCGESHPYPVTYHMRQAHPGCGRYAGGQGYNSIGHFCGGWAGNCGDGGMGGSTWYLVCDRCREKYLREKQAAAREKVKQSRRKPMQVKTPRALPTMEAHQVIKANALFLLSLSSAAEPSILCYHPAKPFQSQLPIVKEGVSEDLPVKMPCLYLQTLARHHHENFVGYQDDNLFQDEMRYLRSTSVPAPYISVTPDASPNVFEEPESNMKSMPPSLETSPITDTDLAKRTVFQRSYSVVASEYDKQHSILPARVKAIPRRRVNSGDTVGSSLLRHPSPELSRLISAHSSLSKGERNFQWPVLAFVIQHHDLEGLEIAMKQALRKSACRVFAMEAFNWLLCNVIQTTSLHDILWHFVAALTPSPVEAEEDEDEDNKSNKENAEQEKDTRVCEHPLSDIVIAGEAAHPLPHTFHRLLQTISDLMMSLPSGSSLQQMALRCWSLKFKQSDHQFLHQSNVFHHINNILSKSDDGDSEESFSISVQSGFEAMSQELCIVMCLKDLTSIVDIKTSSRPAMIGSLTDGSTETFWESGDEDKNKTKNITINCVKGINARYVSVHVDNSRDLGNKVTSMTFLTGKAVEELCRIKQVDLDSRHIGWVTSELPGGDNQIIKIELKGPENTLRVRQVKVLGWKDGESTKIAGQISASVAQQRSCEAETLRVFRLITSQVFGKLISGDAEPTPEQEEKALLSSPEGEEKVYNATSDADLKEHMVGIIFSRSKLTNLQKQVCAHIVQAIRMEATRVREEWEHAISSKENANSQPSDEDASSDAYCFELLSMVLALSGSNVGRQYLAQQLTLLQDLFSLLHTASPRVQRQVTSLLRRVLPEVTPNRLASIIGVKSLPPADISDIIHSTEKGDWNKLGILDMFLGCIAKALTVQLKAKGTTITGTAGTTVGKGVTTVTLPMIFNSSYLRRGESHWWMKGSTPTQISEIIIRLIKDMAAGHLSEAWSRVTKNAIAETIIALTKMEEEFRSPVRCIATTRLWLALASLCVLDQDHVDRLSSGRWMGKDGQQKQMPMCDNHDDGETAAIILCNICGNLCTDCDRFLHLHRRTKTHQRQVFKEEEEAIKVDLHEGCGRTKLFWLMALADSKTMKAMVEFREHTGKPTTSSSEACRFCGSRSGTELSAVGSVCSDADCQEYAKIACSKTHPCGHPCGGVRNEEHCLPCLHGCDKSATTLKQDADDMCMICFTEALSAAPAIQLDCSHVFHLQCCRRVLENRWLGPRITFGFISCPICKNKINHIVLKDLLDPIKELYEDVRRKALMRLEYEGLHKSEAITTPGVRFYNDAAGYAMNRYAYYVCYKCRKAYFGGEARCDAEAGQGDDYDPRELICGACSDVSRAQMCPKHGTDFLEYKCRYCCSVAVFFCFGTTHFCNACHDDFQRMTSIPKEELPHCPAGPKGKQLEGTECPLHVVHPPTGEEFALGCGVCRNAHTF

These are yes or no findings as the source states them, for the method shown. Binding seen in cells or lysates may run through a third protein. These calls come from enrichment with a bait or labelling near it, and not all partners need be listed.

The experiment deals with T1, GASZ (endogenous, testis) (mouse (endogenous in testis)) (UniProt Q8VD46).
T1 sequence: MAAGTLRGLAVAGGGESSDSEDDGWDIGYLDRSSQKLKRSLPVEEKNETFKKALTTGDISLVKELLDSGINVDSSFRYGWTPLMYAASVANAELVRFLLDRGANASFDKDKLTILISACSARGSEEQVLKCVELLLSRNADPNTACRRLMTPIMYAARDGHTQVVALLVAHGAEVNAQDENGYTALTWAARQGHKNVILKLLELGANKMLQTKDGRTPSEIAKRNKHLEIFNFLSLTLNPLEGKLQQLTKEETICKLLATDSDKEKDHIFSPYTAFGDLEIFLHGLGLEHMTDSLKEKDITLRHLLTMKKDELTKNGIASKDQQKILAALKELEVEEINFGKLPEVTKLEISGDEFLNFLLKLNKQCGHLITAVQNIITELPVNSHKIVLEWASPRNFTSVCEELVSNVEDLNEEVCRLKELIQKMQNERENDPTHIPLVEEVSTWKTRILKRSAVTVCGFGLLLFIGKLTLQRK
Description: affinity purification with mass spectrometry; testes homogenised in lysis buffer, cleared supernatant with a GASZ antibody and protein A/G-agarose beads, LC/MS.

Turning to “CULLN3 (CUL3) (from UniProt Q9JLV5 1-768) (enzyme)”, the binding result is recorded as “binds”. The same measure for “CULLN9 (CUL9) (from UniProt Q80TT8 1-2530) (enzyme)”: “binds”. Turning to “MYCBP2 (from UniProt Q7TPH6 1-4749) (enzyme)”, the binding entry is “binds”.

B1: TRIM21 (enzyme, UniProt Q62191 1-470)
chain: MSPSTTSKMSLEKMWEEVTCSICLDPMVEPMSIECGHCFCKECIFEVGKNGGSSCPECRQQFLLRNLRPNRHIANMVENLKQIAQNTKKSTQETHCMKHGEKLHLFCEEDGQALCWVCAQSGKHRDHTRVPIEEAAKVYQEKIHVVLEKLRKGKELAEKMEMDLTMQRTDWKRNIDTQKSRIHAEFALQNSLLAQEEQRQLQRLEKDQREYLRLLGKKEAELAEKNQALQELISELERRIRGSELELLQEVRIILERSGSWNLDTLDIDAPDLTSTCPVPGRKKMLRTCWVHITLDRNTANSWLIISKDRRQVRMGDTHQNVSDNKERFSNYPMVLGAQRFSSGKMYWEVDVTQKEAWDLGVCRDSVQRKGQFSLSPENGFWTIWLWQDSYEAGTSPQTTLHIQVPPCQIGIFVDYEAGVVSFYNITDHGSLIYTFSECVFAGPLRPFFNVGFNYSGGNAAPLKLCPLKM
For B1, the binding result is on record as “binds”.
